Data: patent publication US20220306722A1
Results are given in words; binding and its absence hold for the method and conditions named. Some results given as binding are weak or reduced against the parent protein; the word gives no strength.

Target: recombinant HLA-DQ8 protein (human)
Experiment: DELFIA immunoassay, His-tagged HLA-DQ8 captured on nickel plates, Europium-streptavidin detection

binding: binds
Binder: HLVEALYLVCGERGG (N-terminal biotin) [biotinylated InsB:9-23 peptide]
